Hit rate of the full screen: of about 300,000 compounds, about 5,400 (1.8%) were called active. Inconclusive means that the source gave no clear call. Such entries were picked first, then a sample of the others. The call rests on the fitted dose curve; tested in HEK293 cells. A potency beside an inconclusive call is a rough fit, not a confirmed value.
Experiment: qHTS for inhibitors of binding or entry into cells for Marburg Virus
Details: Marburg virus pseudotyped entry inhibition, cell reporter; series mostly up to 37.8 µM
Potency means the concentration at half of the fitted maximal effect.

Compound	Potency
O=C(NCCc1ccccc1)c1cccc(S(=O)(=O)N2CCCCC2)c1	inconclusive: 0.0891 µM [inhibitor, full curve, poor fit]
O=C(CSc1nc2c(sc3ccccc32)c(=O)n1CCCN1CCCC1)NCC1CCCO1 (stereo not drawn)	inconclusive: 16.4 µM [inhibitor, partial curve, poor fit]
COc1ccc(/C=C(\C#N)C(=O)OCC(=O)NCc2ccccc2)cc1	inconclusive: 12.6 µM [activator, partial curve, poor fit]
CCc1ccc(N(CC(=O)Nc2ccc(NC(C)=O)cc2)S(=O)(=O)c2ccccc2)cc1	inactive
CC(Nc1nc(-c2ccccc2F)nc2ccccc12)c1ccccc1 (stereo not drawn)	inconclusive: 1.41 µM [inhibitor, partial curve, poor fit]
O=C(/C=C/c1ccccc1)C1C(=O)c2ccccc2C1=O	inactive
O=C(O)COc1ccc(Br)cc1/C=C1/SC(=O)N(CC(=O)N2CCCC2)C1=O	inconclusive: 6.31 µM [activator, single point]
Cc1ccc(CSc2nnc(-c3ccc(S(=O)(=O)N4CCCC4)cc3)o2)cc1	inconclusive: 29.1 µM [inhibitor, single point]
CCOCCCNC(=O)COC(=O)/C=C/c1ccc(S(=O)(=O)N2CCc3ccccc32)cc1	inconclusive: 0.562 µM [inhibitor, partial curve, poor fit]
CSCCC(NS(=O)(=O)c1ccccc1)C(=O)OCc1nc2ccsc2c(=O)[nH]1 (stereo not drawn)	inconclusive: 0.562 µM [activator, single point]
COc1cccc(N2CCN(C(=O)c3ccc4nc[nH]c4c3)CC2)c1	inactive
COc1ccccc1N(C1=NCCCS1)S(=O)(=O)c1ccc(C(C)(C)C)cc1	inconclusive: 15.8 µM [inhibitor, partial curve, poor fit]
C=C1CCC[C@]2(C)C[C@H]3OC(=O)C(CNC(C)(CO)CO)[C@H]3CC12 (stereo partly drawn)	inconclusive: 15.8 µM [inhibitor, single point]
O=C(COC(=O)c1c2c(nc3ccccc13)/C(=C/c1ccco1)CC2)NC1CCCC1	inconclusive: 17.8 µM [inhibitor, single point]
COc1ccc(OC)c(NC(=O)Nc2cccc(Cn3cccn3)c2)c1	inconclusive: 5.17 µM [inhibitor, partial curve, poor fit]
COc1ccc(CCNC(=O)Cn2c([N+](=O)[O-])cnc2C)cc1OC	inactive
CC(C)(C)c1ccc(C(=O)N2CCCCCC2=O)cc1	inconclusive: 0.631 µM [inhibitor, full curve, poor fit]
Cc1ccc2nc(-c3ccccn3)cc(C(=O)N3CCN(c4ncccn4)CC3)c2c1	inconclusive: 35.5 µM [activator, single point]
NS(=O)(=O)c1ccc(Nc2nc(-c3ccccc3)cs2)cc1	inconclusive: 8.2 µM [activator, partial curve, poor fit]
COCCNc1cc(C)nc2cc(-c3ccc(C)cc3)nn12	inactive
Cc1nn(-c2ccccc2Cl)c(Cl)c1/C=N/Nc1nc2ccccc2s1	active: 0.0326 µM
Cc1ccc2oc(C(=O)N3CCC(O)(c4cccc(C(F)(F)F)c4)CC3)c(C)c2c1	inconclusive: 20 µM [inhibitor, partial curve, poor fit]
COC1=C/C(=C/c2c(N)n3nc(-c4ccc(C)cc4)sc3nc2=O)C=CC1=O	inconclusive: 2 µM [activator, partial curve, poor fit]

Compound	Potency
Cc1ccccc1C(=O)Nc1ccccc1C(=O)N1CCC(C)CC1	inactive
COc1ccc(-c2cc(C(=O)NCc3ccco3)c3ccccc3n2)cc1OC	inconclusive: 7.94 µM [inhibitor, partial curve, poor fit]
CC(NC(=O)Cc1ccccc1F)c1ccc(F)cc1 (stereo not drawn)	inconclusive: 6.31 µM [inhibitor, single point]
Cc1c(CCO)c(=O)n(-c2ccccc2)n1S(=O)(=O)c1ccc(F)cc1	inactive
CCOC(=O)c1ccc(NC(=O)COc2ccc(S(=O)(=O)NC(C)CC)cc2)cc1 (stereo not drawn)	inactive
O=[N+]([O-])c1ccc(Oc2cccc(Br)c2)c2ccncc12	inconclusive: 10 µM [inhibitor, partial curve, poor fit]
S=C(Nc1ccc2nsnc2c1)N1CCCCC1	inactive
Oc1ccc(C(=S)N2CCCCCC2)cc1	inactive
CC1=CC2=NC(=O)/C(=C\c3cc(C)n(-c4ccccc4)c3C)C(=N)N2O1	inconclusive: 3.55 µM [inhibitor, single point]
Cn1nc(C(=O)NCc2ccccc2CN2CCCC2)c2ccccc2c1=O	inconclusive: 7.94 µM [inhibitor, partial curve, poor fit]
COc1ccc(CCNS(=O)(=O)c2c(C)nc3scc(C)n3c2=O)cc1OC	inactive
COc1ccc(Nc2nc(N3CCCCC3)c3ccccc3n2)cc1	inconclusive: 28.2 µM [inhibitor, single point]
O=C(O)c1c(NC(=O)c2cccc3ccccc23)sc2c1CCC2	inactive
O=C(Cc1c[nH]c2ccccc12)OCC(=O)c1ccccc1	inactive
O=C(COC(=O)[C@@H]1CC(O)CN1S(=O)(=O)c1ccc2c(c1)OCCO2)NCc1ccc(F)cc1 (stereo partly drawn)	inactive
CCc1nnc(NC(=O)c2ccc(Cl)c(S(=O)(=O)N3CCc4ccccc43)c2)s1	inconclusive: 11.2 µM [inhibitor, partial curve]
Cc1ccc(-c2nc3n(n2)Cc2ccccc2-3)cc1	inconclusive: 5.62 µM [inhibitor, full curve, poor fit]
CC(Sc1nnc(-c2ccccc2)c(-c2ccccc2)n1)C(=O)Nc1ncc(Cl)cc1Cl (stereo not drawn)	inconclusive: 35.5 µM [inhibitor, single point]
CC(C)CNC(=O)c1cnn2c(C(F)(F)F)cc(C(F)(F)F)nc12	inconclusive: 1 µM [inhibitor, partial curve, poor fit]
Cn1nccc1NC(=O)COCC(=O)O	inconclusive: 6.31 µM [inhibitor, single point]
O=C(NC(N1CCCCCC1)C(Cl)(Cl)Cl)c1ccccc1Cl (stereo not drawn)	inconclusive: 6.31 µM [inhibitor, single point]
O=C(Nc1c(-c2ccccc2)nc2ccccn12)c1ccccc1F	inconclusive: 20 µM [inhibitor, single point]
CCOc1ccc(-n2c(SCc3ccc(C(=O)OC)o3)nc3c(c2=O)SCC3)cc1	inconclusive: 32.6 µM [inhibitor, single point]

Compound	Potency
CCOc1ccc(NC(=S)N2CCC(C(N)=O)CC2)cc1	inconclusive: 31.6 µM [activator, single point]
O=C(CCc1nnc(-c2ccsc2)o1)N1CCCCC1CCn1ccnc1 (stereo not drawn)	inactive
O=C(C1CC(c2ccccc2O)=NO1)N1CCC2(CC1)OCCO2 (stereo not drawn)	inconclusive: 14.6 µM [inhibitor, single point]
Cc1cc(N2CCOCC2)nc2ccc(NC(=S)N3CCN(c4ccccc4)CC3)cc12	inconclusive: 23.1 µM [inhibitor, single point]
CC(C)C1C(=O)N(Cc2cn(CCC3OCCCO3)nn2)CCS(=O)(=O)N1Cc1ccc(-c2ccc(F)nc2)cc1 (stereo not drawn)	inconclusive: 0.112 µM [inhibitor, full curve, poor fit]
COc1ccc(C2C=C(c3ccccc3)Nc3ncnn32)cc1 (stereo not drawn)	inactive
Cc1cc(C)c(C)c(S(=O)(=O)ON2C(=O)c3ccccc3C2=O)c1C	inconclusive: 0.631 µM [inhibitor, full curve, poor fit]
C=CCn1c(SCC(=O)Nc2cc(C)on2)nnc1C1COc2ccccc2O1 (stereo not drawn)	inactive
COCCN1CCN(Cc2nc(C3(c4ccc(C)cc4)CCCC3)no2)CC1	inactive
O=C(O)CCCC(=O)Nc1ccccc1-n1ccnc1	inconclusive: 11.2 µM [activator, single point]
CC(=O)Oc1ccc2ccccc2c1C(NC(=O)Cc1ccccc1)c1ccc(Cl)cc1 (stereo not drawn)	inconclusive: 29.1 µM [inhibitor, partial curve, poor fit]
COc1cc(OC)cc(-c2nc3ccccc3c(=O)n2OC(=O)c2ccc(C)c(C)c2)c1	active: 11.2 µM
Cc1cc(C)cc(OCC(=O)Nc2ccncc2)c1	inconclusive: 11.2 µM [inhibitor, partial curve, poor fit]
COC(=O)C1CCN(C(=O)Cc2ccc(Br)cc2)CC1	inactive
COc1ccc(NC(=S)NC2CC3CCCC(C2)N3C2CC2)cc1 (stereo not drawn)	inconclusive: 4.61 µM [inhibitor, full curve, poor fit]
COc1ccc(C(OC(=O)c2ccco2)C(=O)NC2CCCCC2)cc1 (stereo not drawn)	inactive
Cc1ccc(-c2nc3ncccc3o2)cc1NC(=O)c1ccc([N+](=O)[O-])o1	inactive
CCS(=O)(=O)Nc1ccc2c(c1)OCO2	inconclusive: 5.62 µM [activator, single point]
COc1cccc(C(=O)N(Cc2ccco2)c2ccccn2)c1	inactive
COc1ccc2oc3cc(C)[n+]([O-])c(-c4ccc(Cl)cc4)c3c2c1	inconclusive: 35.5 µM [inhibitor, single point]
O=C(/C=C/c1cccc(Cl)c1)OCc1cn2cc(Cl)ccc2n1	inconclusive: 31.6 µM [activator, single point]
CCN(CC)CC(=O)N(CC(=O)Nc1c(C)cc(C)cc1C)C1CCCCC1	inconclusive: 1.83 µM [activator, partial curve]

Four neighbouring compounds already listed:
Compound	Potency
O=C(O)CCCC(=O)Nc1ccccc1-n1ccnc1	inconclusive: 11.2 µM [activator, single point]
CC(=O)Oc1ccc2ccccc2c1C(NC(=O)Cc1ccccc1)c1ccc(Cl)cc1 (stereo not drawn)	inconclusive: 29.1 µM [inhibitor, partial curve, poor fit]
COc1cc(OC)cc(-c2nc3ccccc3c(=O)n2OC(=O)c2ccc(C)c(C)c2)c1	active: 11.2 µM
Cc1cc(C)cc(OCC(=O)Nc2ccncc2)c1	inconclusive: 11.2 µM [inhibitor, partial curve, poor fit]

Reference: PubChem BioAssay AID540276 (National Center for Advancing Translational Sciences (NCATS), 2011)
